Measurements taken from patent US20160046728A1.
These are yes or no findings as the source states them, for the method shown. Some entries that bind do so weakly or less than the wild type.

By UniProt entry, the sequences of proteins in these tests, tags left out. Where a name states a change or a piece, a line headed by the entry shows the natural chain unless it says otherwise. Residues count along the entry.
UniProt P00747, residues 97-810: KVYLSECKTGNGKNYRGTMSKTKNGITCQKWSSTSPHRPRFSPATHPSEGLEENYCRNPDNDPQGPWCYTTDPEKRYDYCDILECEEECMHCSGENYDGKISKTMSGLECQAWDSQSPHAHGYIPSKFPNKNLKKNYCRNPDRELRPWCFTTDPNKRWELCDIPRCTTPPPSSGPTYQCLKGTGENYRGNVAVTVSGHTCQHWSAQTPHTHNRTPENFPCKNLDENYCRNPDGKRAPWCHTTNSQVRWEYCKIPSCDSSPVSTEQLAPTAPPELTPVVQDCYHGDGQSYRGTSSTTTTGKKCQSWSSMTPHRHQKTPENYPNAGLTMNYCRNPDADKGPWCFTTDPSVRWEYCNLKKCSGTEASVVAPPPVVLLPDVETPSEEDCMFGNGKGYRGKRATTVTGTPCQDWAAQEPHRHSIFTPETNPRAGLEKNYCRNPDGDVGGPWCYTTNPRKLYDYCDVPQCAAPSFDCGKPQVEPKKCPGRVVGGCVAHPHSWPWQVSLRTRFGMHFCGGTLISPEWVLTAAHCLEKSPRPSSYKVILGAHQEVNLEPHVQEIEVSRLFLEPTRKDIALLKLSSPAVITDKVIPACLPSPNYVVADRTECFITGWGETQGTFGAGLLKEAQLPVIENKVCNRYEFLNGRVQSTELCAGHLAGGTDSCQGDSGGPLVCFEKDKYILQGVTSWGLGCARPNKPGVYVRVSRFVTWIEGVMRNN
UniProt Q9GP15: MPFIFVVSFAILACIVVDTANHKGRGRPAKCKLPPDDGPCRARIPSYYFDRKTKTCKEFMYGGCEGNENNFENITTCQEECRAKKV

Key:
plasmin [1] = target: plasmin (UniProt P00747); assay: SPR (BIAcore 3000), Ir-CPI immobilized on CM5 chip (1500 RU), factor at 100 nM as analyte
plasmin [2] = target: plasmin (UniProt P00747); assay: SPR (BIAcore 3000), Ir-CPI immobilized on a CM5 chip at 1500 RU, analyte 100 nM at 70 µl/min in HBS buffer, blank flow cell subtracted
plasmin [3] = target: plasmin (UniProt P00747); assay: SPR, heading of the result section

Measured: binding

Ir-CPI (Ixodes ricinus Contact Phase Inhibitor), recombinant (from UniProt Q9GP15 20-86)
binds: all assays above
